## Library screening results

From ChEMBL document CHEMBL3988442, “University of Dundee, Small-Polar-MMV Screening Library” (2021).

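Viability assay of Plasmodium falciparum sporozoites; the read-out is not stated. The concentration is filed as 10 mM, unlikely as a test dose, so the dose is not known. Higher reads as lower viability (inferred: compounds with an IC50 in retests scored well above the rest). Strong results were mostly tested again. Size under these conditions: about 34,000 compounds, about 280 of them at 50% or above in at least one test.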

Results are given as percent effect. The controls that fix the scale are not given in the record; negative values are as filed. This is an unselected part of the compounds tested.

compound,Percent Effect
COCC(=O)N1CCC2(CC1)CC(COC)N(Cc1ccccn1)C2.O=C(O)C(F)(F)F (centres undefined),0%
O=C(NCCSc1ccccc1F)NCc1cccnc1,-19.17%
CC(CCc1ccccc1)NC(=O)CNCCCN(C)C.O=C(O)C(=O)O (centres undefined),4.053%
CC1CCCCN1C(=O)c1ccc(=O)[nH]n1 (centres undefined),2.982%
O=C(O)C(F)(F)F.O=C(O)C(F)(F)F.O=C(O)C(F)(F)F.[H][C@@]12CO[C@@H](CN3CCN(C)CC3)[C@]1([H])CCN(Cc1ccc(C)s1)C2,10.79%
O=C(CN1CCCC1Cn1cccn1)NCCOc1cccc(F)c1 (centres undefined),-4.04%
Fc1cnc(N2CCn3cc(CNc4ccccn4)nc3C2)nc1.O=C(O)C(F)(F)F.O=C(O)C(F)(F)F,-13.74%
Cc1nnc(N2CCC(CNC(=O)OC(C)(C)C)CC2)c(C#N)c1C,-10.4%
CN(C)CCO[C@H]1C[C@@H](O)C12CCN(c1ncccc1Cl)CC2,-2.23%
O=C(O)C(F)(F)F.O=C(O)C(F)(F)F.O=C(c1ccncc1)N1CCCn2c(CN3CCCC3)nnc2C1,-1.302%
O=C(c1ccc2[nH]cnc2c1)N1CCCC1Cn1cccn1 (centres undefined),-6.91%
CC(C)c1ccc(CC(=O)N2CCCC3(CN(C)C(=O)O3)C2)cc1 (centres undefined),6.661%
O=C1CN(C(=O)c2cccc(OCc3cscn3)c2)CCN1,7.131%
CN(Cc1nc2ccccc2o1)CC1CCCN1c1cccnn1 (centres undefined),3.344%
CC(C)CNC(=O)c1cc2c(s1)CCN2S(C)(=O)=O,-0.1686%
Cc1cccc(C(=O)N2CCCC(c3noc(C)n3)C2)n1 (centres undefined),6.875%
CNC(=O)c1cc2c(nc1N(C)C)CCN(c1ncc(C)cn1)CC2.O=C(O)C(F)(F)F,10.46%
CN(CC(=O)N(C)C1CCN(CC2CCOC2)CC1)c1ccccc1 (centres undefined),-4.57%
Cc1cnc(CNC(=O)N(CCCO)C2CCc3ccccc32)s1 (centres undefined),3.86%
CCOc1ncccc1C(=O)N1CCCC(c2nccn2CCOC)C1 (centres undefined),9.252%
CC(C)NC(=O)c1ccc2c(c1)C1(CCN(C(C)C)CC1)C(=O)N2.O=C(O)C(F)(F)F,2.895%
O=C(NCCn1cccn1)c1ccn(-c2cccc(F)c2)n1,1.526%
O=C(NCc1nncn1-c1ccccc1)C1CCCC1,3.22%
O=C(Cn1cc(Cl)cn1)N1CCCC(c2cc3ccccc3cn2)C1 (centres undefined),5.765%
CC(NCC(=O)N1CCc2sccc2C1)c1ccccc1F (centres undefined),-8.236%
CCc1nnc(CN2CCN(CC(O)c3ccccc3)CC2)o1 (centres undefined),5.551%
[H][C@@]12CCCO[C@]1([H])[C@H](N(C)Cc1cccnc1)CN2c1ncc(F)cn1,-5.734%
OC[C@@H](O)CN(CCC(F)(F)F)c1ncc(Br)cn1,-7.23%
Cc1nc(CN2CCN(C(C)c3nc(C4CC4)no3)CC2)no1 (centres undefined),2.498%
O=C(CCc1ccccn1)N1CCN(C(=O)CC2CCCCC2)CC1,2.312%
COc1cccc(O[C@H]2CCN(c3nc(C)cc(C)n3)CC[C@@H]2O)c1,11.61%
CCN1CCC(CNC(=O)Nc2cc(C)on2)C1 (centres undefined),13.21%
CNC(=O)C1CCC(NC(=O)N(C)Cc2c(C)noc2C)CC1 (centres undefined),-1.288%
Cc1nccn1CCCn1cncc1-c1ccc2c(c1)CCCN2C.Cl,-1.015%
O=C(CS(=O)(=O)Cc1ccccc1)NC1CCCCNC1=O (centres undefined),6.853%
COc1ccc(C2CCCN2C(=O)c2cc3c([nH]c2=O)CCC3)cc1 (centres undefined),-3.608%
Cc1nc(C)n(CC2CCCN2Cc2cn3ccsc3n2)n1 (centres undefined),6.602%
Cc1ccc(CN(C)C(=O)CN2CCc3ccccc3C2)o1,-14.56%
Cc1nn(C)cc1CN1CCC(C2Nc3ccccc3S(=O)(=O)N2)CC1 (centres undefined),-33.06%
CNc1cccc(C2CCCN(C(=O)c3cnccn3)C2)n1 (centres undefined),-13.48%
CC(=O)N1CCC1c1cc(N2CC(O)C2)nc(C)n1 (centres undefined),16.33%
NCCc1cccc(CN2CCN(c3cccc(Cl)c3)C(=O)C2)c1,-6.615%
[H][C@@]12CC[C@H](Oc3cccc(F)c3)[C@]1([H])CN(C(=O)c1cncnc1)C2,-19.27%
CCOc1ccc(Cl)cc1C1CCCN1.Cl (centres undefined),-12.97%
CS(=O)(=O)NC1CCN(C(=O)NCCc2ccccn2)CC1,-4.021%
O=C(O)C(F)(F)F.[H][C@@]12OCCN(Cc3ccc(F)c(F)c3)[C@@]1([H])CC[C@H]2OC,8.094%
CCC(NC(=O)CCCN1CCCCC1)c1cn2cccnc2n1 (centres undefined),10%
Cc1nc(CN2CCCN(C(=O)c3cccnc3O)CC2)cs1,10.26%
O=C(O)C(F)(F)F.O=C(O)C(F)(F)F.[H][C@@]12CCN(C(=O)C3CC3)C[C@]1([H])[C@@H](CN(C)Cc1cccnc1)OC2,-9.114%
CC(C(=O)N1CCOCC1)N1CCN(Cc2nccn2C)CC1 (centres undefined),20.96%
CC(OCC(F)(F)F)C(=O)N1CCCCC1 (centres undefined),4.841%
O=C(O)C(F)(F)F.[H][C@]12CN(Cc3cccc(C)c3)C[C@@]1([H])S(=O)(=O)CC[C@@H]2C(=O)NCC(C)C,5.351%

Some entries from above, unchanged:

| compound | Percent Effect |
|---|---|
| `Cc1cccc(C(=O)N2CCCC(c3noc(C)n3)C2)n1` (centres undefined) | 6.875% |
| `CN(Cc1nc2ccccc2o1)CC1CCCN1c1cccnn1` (centres undefined) | 3.344% |
| `CC(OCC(F)(F)F)C(=O)N1CCCCC1` (centres undefined) | 4.841% |
| `O=C(c1ccc2[nH]cnc2c1)N1CCCC1Cn1cccn1` (centres undefined) | -6.91% |
| `O=C(NCCn1cccn1)c1ccn(-c2cccc(F)c2)n1` | 1.526% |